Reference: the supplement of paper PMC3334620
In all, about 33,000 sequences were measured (“E-score (-0.5 to 0.5)”: median about -0.016, highest 2% from about 0.3 on). The list shows a part of the results.

What follows are sequences tested against T1, Yer184c (UniProt P39961) (assay: PBM E-score (8-mer binding enrichment) (E-score (-0.5 to 0.5)); higher = stronger / more preferred TF binding). Conditions: protein concentration: 100 nM; construct: GST-full length.
T1 sequence: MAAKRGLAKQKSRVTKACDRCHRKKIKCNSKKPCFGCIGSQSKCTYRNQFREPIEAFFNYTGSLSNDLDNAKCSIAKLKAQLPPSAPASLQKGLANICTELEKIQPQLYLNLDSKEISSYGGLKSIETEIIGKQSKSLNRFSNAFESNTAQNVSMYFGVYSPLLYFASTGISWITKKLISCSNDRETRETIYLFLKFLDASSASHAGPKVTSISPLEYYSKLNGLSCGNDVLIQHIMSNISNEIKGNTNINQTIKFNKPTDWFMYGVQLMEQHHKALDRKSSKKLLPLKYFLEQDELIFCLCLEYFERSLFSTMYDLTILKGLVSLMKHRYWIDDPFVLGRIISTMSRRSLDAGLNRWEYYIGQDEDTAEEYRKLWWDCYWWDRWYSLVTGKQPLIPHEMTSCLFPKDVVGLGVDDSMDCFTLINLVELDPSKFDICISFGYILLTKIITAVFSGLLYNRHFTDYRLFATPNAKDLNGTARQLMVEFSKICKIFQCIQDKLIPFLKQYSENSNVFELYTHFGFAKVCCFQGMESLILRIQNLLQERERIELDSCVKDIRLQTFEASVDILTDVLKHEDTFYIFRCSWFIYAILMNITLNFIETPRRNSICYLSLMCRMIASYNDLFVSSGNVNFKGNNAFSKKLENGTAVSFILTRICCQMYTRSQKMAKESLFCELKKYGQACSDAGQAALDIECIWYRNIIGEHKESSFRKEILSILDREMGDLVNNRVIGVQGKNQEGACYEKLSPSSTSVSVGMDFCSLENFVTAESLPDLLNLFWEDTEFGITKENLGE
Outline: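 PURExpress in vitro transcription/translation supplied GST-tagged yeast transcription factors, either full-length or DNA-binding domain. Applied at about 100-200 nM to universal all-10-mer Agilent arrays double-stranded by primer extension, the bound protein was detected with fluorescent anti-GST. E-scores, modified Wilcoxon-Mann-Whitney statistics, were given by the Universal PBM Analysis Suite to ungapped eight-base words pooled with their reverse complements after masliner normalisation.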

Row | Sequence | PBM E-score
1 | GTCCAGTA | -0.134
2 | AATGTGCT | 0.137
3 | TCCGGTCA | 0.116
4 | CTGGCATC | -0.302
5 | ACGCTTTC | -0.166
6 | AGGGCCTA | -0.176
7 | AATCCGCA | 0.101
8 | AAGGTATC | -0.0263
9 | CTATGGTC | -0.0949
10 | CTGGCGTA | -0.237
11 | CCAAGCCA | -0.222
12 | AAGAAAAG | 0.055
13 | TCGTACAA | 0.0657
14 | CACTACTG | -0.21
15 | GAAGGCCA | -0.384
16 | AATAACAA | 0.105
17 | ATTGACCG | 0.101
18 | CCCAGATA | -0.193
19 | ATCTTATA | 0.13
20 | ACCATTCA | 0.00717
21 | ACAGCCGC | -0.0252
22 | CAACGCGG | 0.0794
23 | TCGACACA | 0.0956
24 | ATAGAGTA | -0.00142
25 | GGTGCGAA | 0.0393

Row | Sequence | PBM E-score
26 | GAACACGA | 0.132
27 | ACAAGCCG | 0.22
28 | GGTTCAAC | 0.00881
29 | AAGATAGT | 0.108
30 | GGGGCGTA | -0.231
31 | CACTACCG | -0.0663
32 | CCGGCTGA | 0.327
33 | ACTTTGTC | -0.0343
34 | CCAGCTCA | -0.235
35 | ACAAAGCC | 0.0883
36 | AATGATTG | 0.0403
37 | AGGTTCGA | 0.0505
38 | TAAACACA | 0.0625
39 | AGGATCCG | 0.102
40 | ATGTCAAC | -0.0333
41 | GGGTGACA | -0.0674
42 | AGTCGGAA | 0.245
43 | TCCAGCAA | -0.0646
44 | CGGTTTAG | 0.11
45 | AGCAGAAT | 0.098
46 | TCCTGAAA | 0.0897
47 | AGGTTATC | -0.0359
48 | CCGTCCAC | -0.013
49 | ATCACGTC | -0.188
50 | AGACTGTA | -0.072

2 entries picked at random from the list so far:
Row | Sequence | PBM E-score
42 | AGTCGGAA | 0.245
32 | CCGGCTGA | 0.327

The listing continues.

Row | Sequence | PBM E-score
51 | AATGGTGG | -0.189
52 | ACTGTCGG | 0.0175
53 | AATGAAAA | 0.137
54 | CTACGATA | -0.00818
55 | GTGGCGCA | -0.186
56 | GCGTCGGA | 0.185
57 | GCTCTAAA | -0.0151
58 | ATAAAAGA | 0.0206
59 | CCTATTCC | -0.0406
60 | AGATCGGG | -0.0198
61 | CAAGATTC | 0.134
62 | AGATAGAC | 0.0029
63 | GAATCAGA | 0.198
64 | ATATATGC | 0.113
65 | ACGCTTGG | -0.161
66 | CTGCTTGA | -0.107
67 | AGCTAACT | -0.0425
68 | ACAGTATC | -0.0169
69 | ATGAATAA | -0.106
70 | GACGGACC | 0.14
71 | GCTATGGA | -0.192
72 | AGGGAACT | -0.0662
73 | CGCGCATC | -0.0187
74 | ATCTGGGA | -0.2
75 | CAAGGGCG | -0.235

Some of the entries so far, as a markdown table:

| Row | Sequence | PBM E-score |
| --- | --- | --- |
| 34 | CCAGCTCA | -0.235 |
| 35 | ACAAAGCC | 0.0883 |
| 36 | AATGATTG | 0.0403 |
| 37 | AGGTTCGA | 0.0505 |

Next entries:

Row | Sequence | PBM E-score
76 | ACGCAGAT | 0.148
77 | CTCCTTCC | -0.163
78 | CCACCCAA | -0.303
79 | AATAACGG | 0.287
80 | GACGATGC | -0.0312
81 | TCGCGAGA | 0.0874
82 | AGCTACGG | -0.102
83 | ACGCGCCA | -0.086
84 | AGTCAAGC | -0.249
85 | ATTTTTAA | 0.333
86 | CAAAGGAC | -0.24
87 | CGATGGTA | -0.146
88 | GCAACACC | 0.0665
89 | AATGGGCA | -0.216
90 | CAACTATC | 0.0598
91 | GCCACAGA | -0.108
92 | CGAAACCG | 0.253
93 | CAACAAGG | 0.0959
94 | CTGTGCAC | -0.124
95 | AAAAATGA | 0.0565
96 | CTCCTGTC | -0.0001
97 | ATAAGGAG | 0.0268
98 | GCCGTTAC | 0.119
99 | CTCCATCA | 0.0642
100 | GGTGGCAC | -0.209

Row | Sequence | PBM E-score
101 | ATTGAGGA | -0.0886
102 | AAGGGTGG | -0.257
103 | AGCCACCA | -0.138
104 | ATATATAG | 0.282
105 | TCTAATAA | 0.0583
106 | ACGTATGC | -0.0879
107 | ATTCATGC | -0.0971
108 | GTTCGCTA | 0.024
109 | ACCCTGAA | -0.111
110 | AGCAACGA | -0.0285
111 | GATACGCA | -0.0515
112 | GGCAAGAA | 0.151
113 | GGGGCACA | -0.168
114 | GAGCAGGA | 0.0604
115 | TAAGAACA | 0.26
116 | ACACAGTG | -0.0369
117 | GTTCTTTA | 0.178
118 | GATCAACC | 0.0294
119 | TCGCAAAA | 0.0605
120 | GGCGATAC | -0.0212
121 | TCGCTCAA | 0.047
122 | AATGATGA | 0.0323
123 | CTGGGATA | 0.076
124 | AGAATTTA | 0.121
125 | TCGTTTAA | 0.11

Row | Sequence | PBM E-score
126 | TCGCGACA | -0.0138
127 | CTTACCGA | 0.259
128 | CCAGGGGA | -0.174
129 | AAGCATGA | 0.0348
130 | CCAGTCTC | -0.203
131 | GCCAAGCC | -0.157
132 | CCACCACG | -0.139
133 | AACCTCAC | -0.0921
134 | CTAAACCA | 0.0368
135 | ATATCATC | 0.0201
136 | ACGGATTA | 0.183
137 | AATGTGAA | 0.171
138 | ACTGCGCT | -0.181
139 | TCGTACCA | 0.099
140 | GCGTTGCA | 0.107
141 | AAAGCCTG | -0.111
142 | GCCTCGAA | 0.165
143 | TAGGCCTA | 0.031
144 | ATAGGGAC | -0.171
145 | CTGAATTC | -0.0945
146 | CCTAGAAG | -0.226
147 | ACTCTGGA | 0.0998
148 | AGGCTTCA | -0.108
149 | ATGTTCCA | 0.016
150 | ACTGGAGG | -0.13

Row | Sequence | PBM E-score
151 | GCTACCAA | -0.0319
152 | GCCGCGCC | 0.0555
153 | AGATAGTG | 0.118
154 | ACTGCGGA | 0.0355
155 | ACCGCGCT | 0.0255
156 | AGGAACGA | -0.141
157 | CCGACTGC | -0.0462
158 | ATCTGCAA | -0.211
159 | ACTCAGCT | -0.137
160 | ACTCTCGC | -0.169
161 | AGATATGG | -0.157
162 | AAAGCCAA | 0.0154
163 | CCTGTAAA | -0.0958
164 | CCCTGAAA | -0.104
165 | GATCGGGC | 0.00638
166 | CGCGAAGA | 0.173
167 | CCACGAGC | 0.0934
168 | ACTTTTAA | 0.0588
169 | AGTTTCCC | -0.0163
170 | ATGGGTTA | -0.0129
171 | GGCCCGAA | 0.188
172 | AGAGAGAT | 0.0462

Some of the entries above in a different format:
AGATAGTG
  PBM E-score: 0.118
ACTGCGGA
  PBM E-score: 0.0355
AGGAACGA
  PBM E-score: -0.141
CCACGAGC
  PBM E-score: 0.0934
